PMC7819943, “Rice protein-binding microarrays: a tool to detect cis-acting elements near promoter regions in rice”
The other results are listed elsewhere or left out.

Amino acid sequences for entries named in this document (tags omitted).
UniProt Q0JBA9, entry or part of it: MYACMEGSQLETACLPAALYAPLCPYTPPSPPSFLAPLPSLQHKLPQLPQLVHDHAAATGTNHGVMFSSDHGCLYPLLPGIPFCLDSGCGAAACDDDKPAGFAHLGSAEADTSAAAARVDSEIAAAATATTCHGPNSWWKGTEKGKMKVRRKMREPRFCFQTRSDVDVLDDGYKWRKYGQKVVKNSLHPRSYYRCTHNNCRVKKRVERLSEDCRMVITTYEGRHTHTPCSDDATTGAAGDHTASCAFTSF

Each sequence was assayed against OsWRKY34 (Oryza sativa, UniProt Q0JBA9 1-250) (assay: protein-binding microarray (RPBM); PBS, 2% BSA, 51.3 ng/ul salmon testes DNA, 50 uM zinc acetate, 200 nM TF, 25 C, 1 h; high values mean tight binding). Details: protein: recombinant; tags: N-terminal polyhistidine and DsRed monomer fusion (pET32a); label: CyDye5-dUTP incorporated in the synthesized complementary strand; 3' TTTTT single-stranded linker to array surface; dsDNA, one strand shown.
How it was run: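 The binding signal for each feature is its fluorescence intensity in arbitrary units. An Axon 4000B scanner was used to read a custom Agilent array that had been made double-stranded with Cy5-dUTP primer extension, blocked with 2% BSA, incubated at 25 °C for 1 h with 200 nM protein in PBS, 2% BSA, salmon testes DNA and 50 µM zinc acetate, and washed. The protein was an N-terminal polyhistidine–DsRed transcription factor fusion from E. coli BL21-CodonPlus, purified on Ni–NTA.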

Going from “TCAGCTTGTTTCATTCGCATCTATAGCTTCTTTTTTTCCGCGGAGTCACCTAGTGCAG” to “TCCATTCGTAATTCATACAGTACTTTACATCGTTGCTTCACGGAGTCACCTAGTGCAG”, the binding signal falls from 9170 fluorescence intensity (a.u.) to 8780 fluorescence intensity (a.u.).

Going from “TTGGTTTTCATGATATTTTGATCCTGCATTTTTTCCTATTCGGAGTCACCTAGTGCAG” to “TAGGTACATTCCCATCTATTTGGAAATTTTCTTATTCCAACGGAGTCACCTAGTGCAG”, the binding signal falls from 10800 fluorescence intensity (a.u.) to 8060 fluorescence intensity (a.u.).

Compared with “ACTACGCATCACCTATATTCCATCCAGCCCTACATAAACCCGGAGTCACCTAGTGCAG”, “CAGCAGAGAAATTCCACCGTTTTCCTGTCCTCGCTCGCCACGGAGTCACCTAGTGCAG” is higher in binding signal: 8500 fluorescence intensity (a.u.) for the first, 8610 fluorescence intensity (a.u.) for the second.

First: AATGAACCTTTTCTAATCCTGTTCGGCCCGTTTCAGCCGGCGGAGTCACCTAGTGCAG
Second: ATCAGAAACCTCAGTCGTCTCACTTCTTCACATCACGCCACGGAGTCACCTAGTGCAG
The binding signal of the first is lower: 8300 fluorescence intensity (a.u.) for the first, 8790 fluorescence intensity (a.u.) for the second.

Going from “TTAACTTTTTATGGTATTAATGATGTATTGGGGTTTTTTTCGGAGTCACCTAGTGCAG” to “GGGCTGGCAACGATGGCATTTCGGGCATCACTTCCCATCTCGGAGTCACCTAGTGCAG”, the binding signal falls from 11700 fluorescence intensity (a.u.) to 10100 fluorescence intensity (a.u.).

Going from “TGTTTCACAAGTAGTCTTCTTTTTTTTCTGGCACATTTAACGGAGTCACCTAGTGCAG” to “CCAGTGAACATATACTCACAGTCAAATTTGTTTTTTGACTCGGAGTCACCTAGTGCAG”, the binding signal rises from 8080 fluorescence intensity (a.u.) to 8350 fluorescence intensity (a.u.).

First: CGGGGCCAACGAACTTTTCCTCTCCTTCCCGCATCCTCTCCGGAGTCACCTAGTGCAG
Second: CATTGCCAGGAGTCCCACACTCCCACTTCCCAAGTGCTGCCGGAGTCACCTAGTGCAG
The binding signal of the first is higher: 8510 fluorescence intensity (a.u.) for the first, 8450 fluorescence intensity (a.u.) for the second.

Going from “CGCCGAACCCTTCTCGCGTCATCGTCCCCTTCCGCCGCCGCGGAGTCACCTAGTGCAG” to “GGGCTGGGTCGCGTACCCGAATCGTGCTCCATTGGATCTCCGGAGTCACCTAGTGCAG”, the binding signal falls from 9520 fluorescence intensity (a.u.) to 9390 fluorescence intensity (a.u.).

Going from “CCACCTATTTAACTCGCGCCTCCATCGCTTTCCAGTTTCCCGGAGTCACCTAGTGCAG” to “CTAGAATCTCCTCGCGTTGTTCTTCCCTTGCTTAATTAATCGGAGTCACCTAGTGCAG”, the binding signal falls from 10100 fluorescence intensity (a.u.) to 8650 fluorescence intensity (a.u.).

Compared with “TTCGTTTTTTCCGCCCTCGTGTTCGGCGCAAATCTTCTTCCGGAGTCACCTAGTGCAG”, “AACCTTAGATTTCCGTGTCTAACTTTGACTGTCTGTCTTACGGAGTCACCTAGTGCAG” is higher in binding signal: 8530 fluorescence intensity (a.u.) for the first, 10600 fluorescence intensity (a.u.) for the second.

First: AATTGTTTCTGGGAAGTAGCTGGTTGTTAGTCACGTTAATCGGAGTCACCTAGTGCAG
Second: CCTGCCCAACCCGCCGCATCCTAATTCCTAAACCCTAACACGGAGTCACCTAGTGCAG
The binding signal of the first is higher: 11600 fluorescence intensity (a.u.) for the first, 8430 fluorescence intensity (a.u.) for the second.

Going from “CCTTTGTTCTTGCCGTCTCTTTTTTTTTTTTACAGAAGAACGGAGTCACCTAGTGCAG” to “CGATGGTGTGGTTTGGTTGCAGGTACAAGGTTGAAGACGACGGAGTCACCTAGTGCAG”, the binding signal falls from 14600 fluorescence intensity (a.u.) to 10700 fluorescence intensity (a.u.).

Compared with “AAGGGGCATAGAGAGCTCATAATGGGGTTGGTCGTATCTACGGAGTCACCTAGTGCAG”, “TCGGCTTGTCAGCCGATCGGCTGTTTTATCTGCTGTTTACCGGAGTCACCTAGTGCAG” is lower in binding signal: 9500 fluorescence intensity (a.u.) for the first, 8390 fluorescence intensity (a.u.) for the second.

Going from “ATCCGTACTCCCGTATATGTGGCAACATCTCCATCGTTTTCGGAGTCACCTAGTGCAG” to “AAAATCCCTGTCCCCTGTTTTTTTACTGCAATCTCGCGTACGGAGTCACCTAGTGCAG”, the binding signal falls from 16000 fluorescence intensity (a.u.) to 11100 fluorescence intensity (a.u.).

Going from “GTTTTTTTTACTGTGTTTCTTAATCTAAAGCGACTATTATCGGAGTCACCTAGTGCAG” to “TCCCGTCTCCGCATCCACCTCCTCGGCCTCCGACTACTTACGGAGTCACCTAGTGCAG”, the binding signal rises from 8270 fluorescence intensity (a.u.) to 9220 fluorescence intensity (a.u.).

Compared with “CTCTGCTCAGTGCTGCTCACTGCCTCACTCACACTGTCACCGGAGTCACCTAGTGCAG”, “GCTGACCACGTTTCTCCTCTCTTTTTTACAGCGTCGCGCACGGAGTCACCTAGTGCAG” is higher in binding signal: 11000 fluorescence intensity (a.u.) for the first, 12200 fluorescence intensity (a.u.) for the second.

Going from “ACCGCCGGACCTCCTCTCCCGCCTCGTCCCGGCGACCTTCCGGAGTCACCTAGTGCAG” to “GGTATCAGAGCACGGTTTAGGAAGTGGACTCGTGACCGCGCGGAGTCACCTAGTGCAG”, the binding signal falls from 8890 fluorescence intensity (a.u.) to 8040 fluorescence intensity (a.u.).

Going from “TTTTGTGTTTTGAATTTTGTCTCGAGACCTTCATGTTCTTCGGAGTCACCTAGTGCAG” to “ACTCCCTATACTATATATCATGTTTAAATTTTGGTCGTAACGGAGTCACCTAGTGCAG”, the binding signal falls from 10500 fluorescence intensity (a.u.) to 8340 fluorescence intensity (a.u.).

Compared with “TGATCAGCTCGCCACGTCACCGTCACCGCCTCGCCTCGCTCGGAGTCACCTAGTGCAG”, “CTGTAGCTAGCTTTTCCAGGACAGCTTCATGCCTCTTCAACGGAGTCACCTAGTGCAG” is lower in binding signal: 13600 fluorescence intensity (a.u.) for the first, 8930 fluorescence intensity (a.u.) for the second.

Going from “TTCATTCTCGAGTCTCGTCATTGTATTGAAAGTATTCACACGGAGTCACCTAGTGCAG” to “GATTCTTCTAGTGTACCTTACTATGTTACCACAATAGTATCGGAGTCACCTAGTGCAG”, the binding signal rises from 8560 fluorescence intensity (a.u.) to 8630 fluorescence intensity (a.u.).

First: ACTCCATCGTTTCAAATTATAAGTCGATTTAACCATTTTCCGGAGTCACCTAGTGCAG
Second: GAGCTTCCAGATCCCGCCGGCGACCATGATCATCTTCACCCGGAGTCACCTAGTGCAG
The binding signal of the first is higher: 9310 fluorescence intensity (a.u.) for the first, 8850 fluorescence intensity (a.u.) for the second.
